Record: PubChem BioAssay AID1224830 (NIAID, 2016)

Purpose: 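Regulators of TLR4 signalling towards TNF-alpha in macrophage-like cells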 (primary screen)
Cell system: human THP-1 monocytic leukaemia cells, TNF dual-luciferase reporter clone, PMA-differentiated to macrophage-like cells
Reagent: siRNA pool against human genes, 50 nM
Time to read-out: LPS for 4 h, given about 3 days after siRNA transfection
Challenge: bacterial LPS (TLR4 ligand), 10 ng/ml
Detection: 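Ratio of firefly to renilla light, scaled to the plate median and expressed as a robust z-score per replicate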
Scale: TNF reporter robust z-score: higher = stronger TNF reporter response to LPS
Hit rule: 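a well is active when its z-score exceeds 2.8 or falls below -1.5; control wells carry no call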
This is one part, drawn at random, of about 18,000 reagents. About 2,900 of all reagents (16%) were called active. 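Calls are made per well; low scores hint the gene aids the LPS response, high scores that it dampens it.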 Repeated entries: four replicate wells of each siRNA pool.

Against PRR16 the deposit lists TNF reporter robust z-score -0.96; inactive.
After knock-down of PRR16, the record shows TNF reporter robust z-score -0.13; inactive.
Against PRR16, the values are TNF reporter robust z-score 0.06; inactive.
With knock-down of PRR16 the results were TNF reporter robust z-score 0.05; inactive.
CLPB gave TNF reporter robust z-score -0.51; inactive.
With knock-down of CLPB, the record shows TNF reporter robust z-score -0.94; inactive.
CLPB gave TNF reporter robust z-score -1.21; inactive.
Silencing of CLPB gave: TNF reporter robust z-score -0.47; inactive.
PRSS36 showed TNF reporter robust z-score -0.86; inactive.
After knock-down of PRSS36, the record shows TNF reporter robust z-score -0.44; inactive.
Knock-down of PRSS36 came out at: TNF reporter robust z-score -0.61; inactive.
PRSS36 gave TNF reporter robust z-score 0.79; inactive.
TBCE gave TNF reporter robust z-score 0.21; inactive.
For TBCE, the entry reads TNF reporter robust z-score -0.29; inactive.
TBCE scored TNF reporter robust z-score 0.07; inactive.
Against TBCE, the entry reads TNF reporter robust z-score 1.63; inactive.
For OR6K6 the deposit lists TNF reporter robust z-score 1.45; inactive.
OR6K6 gave TNF reporter robust z-score 1.66; inactive.
OR6K6 scored TNF reporter robust z-score 1.62; inactive.
